Results are given in words; binding and its absence hold for the method and conditions named. In cells and extracts the contact can be indirect. Some results given as binding are weak or reduced against the parent protein; the word gives no strength.
T1: VC155-A20 (UniProt P21580)
T1 sequence: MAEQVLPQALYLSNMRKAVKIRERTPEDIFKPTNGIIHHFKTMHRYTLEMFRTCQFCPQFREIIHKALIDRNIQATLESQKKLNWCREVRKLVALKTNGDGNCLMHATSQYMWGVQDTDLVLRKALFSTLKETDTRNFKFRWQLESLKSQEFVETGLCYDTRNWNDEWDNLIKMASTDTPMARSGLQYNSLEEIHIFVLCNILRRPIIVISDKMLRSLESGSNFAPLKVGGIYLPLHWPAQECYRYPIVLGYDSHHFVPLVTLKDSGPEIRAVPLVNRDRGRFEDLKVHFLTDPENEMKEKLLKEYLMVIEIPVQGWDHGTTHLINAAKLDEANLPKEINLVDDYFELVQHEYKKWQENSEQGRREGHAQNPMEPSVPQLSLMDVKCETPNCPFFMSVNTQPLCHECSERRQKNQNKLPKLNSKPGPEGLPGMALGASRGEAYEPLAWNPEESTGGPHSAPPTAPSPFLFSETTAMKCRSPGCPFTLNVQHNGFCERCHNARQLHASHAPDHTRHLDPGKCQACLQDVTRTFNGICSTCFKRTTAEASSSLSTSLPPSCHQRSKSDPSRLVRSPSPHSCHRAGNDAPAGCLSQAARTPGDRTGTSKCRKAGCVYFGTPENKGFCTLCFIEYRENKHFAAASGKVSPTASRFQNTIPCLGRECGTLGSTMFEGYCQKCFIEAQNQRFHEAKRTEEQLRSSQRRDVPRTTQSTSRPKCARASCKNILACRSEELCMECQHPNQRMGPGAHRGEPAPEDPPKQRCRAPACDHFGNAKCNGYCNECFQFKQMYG

T2: A20 (Tumor necrosis factor alpha-induced protein 3), endogenous (human (endogenous in Huh7)) (UniProt P21580)
T2 sequence: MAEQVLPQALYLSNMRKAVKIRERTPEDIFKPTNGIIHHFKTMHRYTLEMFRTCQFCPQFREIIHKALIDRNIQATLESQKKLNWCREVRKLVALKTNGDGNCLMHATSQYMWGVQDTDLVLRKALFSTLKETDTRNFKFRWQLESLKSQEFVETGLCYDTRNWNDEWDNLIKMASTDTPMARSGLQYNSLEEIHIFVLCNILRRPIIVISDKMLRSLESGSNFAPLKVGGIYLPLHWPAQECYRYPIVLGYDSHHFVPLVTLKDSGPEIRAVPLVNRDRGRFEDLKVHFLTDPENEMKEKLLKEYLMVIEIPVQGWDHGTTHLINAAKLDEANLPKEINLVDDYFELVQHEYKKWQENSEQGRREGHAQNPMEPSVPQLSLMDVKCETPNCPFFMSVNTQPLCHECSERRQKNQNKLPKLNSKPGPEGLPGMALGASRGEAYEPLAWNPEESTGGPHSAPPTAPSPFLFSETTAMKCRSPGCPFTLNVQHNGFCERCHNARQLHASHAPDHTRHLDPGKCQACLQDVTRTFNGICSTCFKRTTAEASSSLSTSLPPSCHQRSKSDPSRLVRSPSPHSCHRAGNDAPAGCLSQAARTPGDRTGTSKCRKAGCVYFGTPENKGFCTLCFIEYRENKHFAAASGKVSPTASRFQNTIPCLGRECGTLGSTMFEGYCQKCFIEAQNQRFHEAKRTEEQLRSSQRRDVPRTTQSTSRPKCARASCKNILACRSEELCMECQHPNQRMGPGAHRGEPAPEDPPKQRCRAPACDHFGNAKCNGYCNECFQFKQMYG


Experiments:
VC155-A20 = molecular target: T1, VC155-A20; test: split reporter; BiFC in Huh7 cells transfected with VC155-A20 and VN173-PFKL plasmids (1 ug each), fixed 24 h after transfection, confocal microscopy
[1] = molecular target: T2, A20 (Tumor necrosis factor alpha-induced protein 3), endogenous (human (endogenous in Huh7)); test: proximity ligation; Duolink in situ assay in Huh7 cells with anti-A20 (mouse) and anti-PFKL (rabbit) antibodies; cells pretreated with MG132 for 6 h, then with or without LPS for 4 h
[2] = molecular target: T2, A20 (Tumor necrosis factor alpha-induced protein 3), endogenous (human (endogenous in Huh7)); test: co-IP; endogenous proteins, Huh7 lysate in 0.1-0.5% Nonidet P40 buffer (150 mM NaCl, 50 mM Tris-HCl, pH 7.5); anti-A20 antibody and protein G agarose at 4 °C; western blotting

| binding (VC155-A20) | Binder | binding [1] | binding [2] |
| --- | --- | --- | --- |
| binds | VN173-PFKL (enzyme, UniProt P17858 1-780) MAAVDLEKLRASGAGKAIGVLTSGGDAQGMNAAVRAVTRMGIYVGAKVFLIYEGYEGLVEGGENIKQANWLSVSNIIQLGGTIIGSARCKAFTTREGRRAAAYNLVQHGITNLCVIGGDGSLTGANIFRSEWGSLLEELVAEGKISETTARTYSHLNIAGLVGSIDNDFCGTDMTIGTDSALHRIMEVIDAITTTAQSHQRTFVLEVMGRHCGYLALVSALASGADWLFIPEAPPEDGWENFMCERLGETRSRGSRLNIIIIAEGAIDRNGKPISSSYVKDLVVQRLGFDTRVTVLGHVQRGGTPSAFDRILSSKMGMEAVMALLEATPDTPACVVTLSGNQSVRLPLMECVQMTKEVQKAMDDKRFDEATQLRGGSFENNWNIYKLLAHQKPPKEKSNFSLAILNVGAPAAGMNAAVRSAVRTGISHGHTVYVVHDGFEGLAKGQVQEVGWHDVAGWLGRGGSMLGTKRTLPKGQLESIVENIRIYGIHALLVVGGFEAYEGVLQLVEARGRYEELCIVMCVIPATISNNVPGTDFSLGSDTAVNAAMESCDRIKQSASGTKRRVFIVETMGGYCGYLATVTGIAVGADAAYVFEDPFNIHDLKVNVEHMTEKMKTDIQRGLVLRNEKCHDYYTTEFLYNLYSSEGKGVFDCRTNVLGHLQQGGAPTPFDRNYGTKLGVKAMLWLSEKLREVYRKGRVFANAPDSACVIGLKKKAVAFSPVTELKKDTDFEHRMPREQWWLSLRLMLKMLAQYRISMAAYVSGELEHVTRRTLSMDKGF | – | – |
| – | phosphofructokinase, liver type (PFKL), endogenous (enzyme, UniProt P17858 1-780) MAAVDLEKLRASGAGKAIGVLTSGGDAQGMNAAVRAVTRMGIYVGAKVFLIYEGYEGLVEGGENIKQANWLSVSNIIQLGGTIIGSARCKAFTTREGRRAAAYNLVQHGITNLCVIGGDGSLTGANIFRSEWGSLLEELVAEGKISETTARTYSHLNIAGLVGSIDNDFCGTDMTIGTDSALHRIMEVIDAITTTAQSHQRTFVLEVMGRHCGYLALVSALASGADWLFIPEAPPEDGWENFMCERLGETRSRGSRLNIIIIAEGAIDRNGKPISSSYVKDLVVQRLGFDTRVTVLGHVQRGGTPSAFDRILSSKMGMEAVMALLEATPDTPACVVTLSGNQSVRLPLMECVQMTKEVQKAMDDKRFDEATQLRGGSFENNWNIYKLLAHQKPPKEKSNFSLAILNVGAPAAGMNAAVRSAVRTGISHGHTVYVVHDGFEGLAKGQVQEVGWHDVAGWLGRGGSMLGTKRTLPKGQLESIVENIRIYGIHALLVVGGFEAYEGVLQLVEARGRYEELCIVMCVIPATISNNVPGTDFSLGSDTAVNAAMESCDRIKQSASGTKRRVFIVETMGGYCGYLATVTGIAVGADAAYVFEDPFNIHDLKVNVEHMTEKMKTDIQRGLVLRNEKCHDYYTTEFLYNLYSSEGKGVFDCRTNVLGHLQQGGAPTPFDRNYGTKLGVKAMLWLSEKLREVYRKGRVFANAPDSACVIGLKKKAVAFSPVTELKKDTDFEHRMPREQWWLSLRLMLKMLAQYRISMAAYVSGELEHVTRRTLSMDKGF | binds | binds |
